The results in this text go back to patent US9091687B2, “ELISpot diagnostic kit for neuromyelitis optica and its application” (priority 2012, dated 2015).

This data set has as its system specific IL-4 T-cells secreted in the peripheral blood of NMO victims. Nature of the data set: ELISpot diagnosis of NMO: IL-4 spot detection in PBMC stimulated with the AQP-4 polypeptide. Type of data set: cell-based, human. Conditions: 20 NMO victims. Here is the method: This invention is applied to differentially diagnose 20 cases in the control group of healthy people (the Control Group), 20 cases in the control group suffering disease (multiple sclerosis victims, the MS Group) and 20 cases in the NMO group (the NMO Group), so as to preliminarily judge the specificity and sensitivity of this invention in the NMO diagnosis and then judge its clinical significance.
Add 1:500 diluted IL-4 capture antibody into the ELISpot filtration membrane plate, at 100 ul/hole; after staying overnight at 4° C., use sterile phosphate buffered solution (PBS) to wash the plate for 3 times, at 3 min/time;
PBS containing 5% bovine serum albumin is added into each hold, incubated for 2 h at 37° C.; after sealing, it is stored at 4° C., for use within 1 week.
4-5 ml of victim or health person's peripheral anticoagulated blood for storage at the normal temperature, to be detected within 6 h;
Under the condition of aseptic processing, the 1640 culture medium is used to dilute the blood at a volume ratio of 1:1, evenly mixed and then added to the surface of lymphocyte separating medium of 1 time volume, forming an obvious interface; under the room temperature, 1000 g is centrifuged for 22 min;
Use the sterile suction tube to absorb the peripheral blood mononuclear cell (PBMC) of separating layer and place it in one sterile centrifugal tube; add 8 ml of 1640 culture medium without blood serum; taken 700 g for centrifuging for 7 min;
Abandon the supernatant culture medium, and add 6 ml of 1640 culture medium suspended cells containing 10% calf serum; taken 300 g for centrifuging for 5 min; […]
Add 100 μl of substrate liquid nitrogen blue tetrazolium and 5-Br-4-Cl-3 indole phosphoric acid into each hole; place under the room temperature in a closed way for 15 min till spots appear; use the tap water to wash and then air-dry it; check the quantity of spots for statistics and analyses. […]

[1] abbreviates: 20 healthy controls, 20 multiple sclerosis victims, 50 ul of 50 ug/ml polypeptide, PBMC cultivated 20 hours, preliminarily held.

In turn, “IMVAFKGVWTQAFWKCLVTPPSVVGGLGVTMVHGNLT (listed as Homo sapiens) [this invention, polypeptide fragment joining immunogenic human AQP-4 fragments (23-36 and 135-155 amino acids), used in the ELISpot kit for diagnosis of NMO]” registered a detectable rate (FIG. 2) of 85%. Also, under setting [1], the “sensitivity of NMO diagnosis” value was determined as 85% and the “specificity of NMO diagnosis” value came out at 95%.
